Source: the supplement of paper PMC6411743
± gives the standard deviation of the averaged measurements. The list shows a part of the results, in another mix than the full data.

Protein sequences, listed by entry. Tags and fused reporters are not part of them. Lines headed by an entry give the natural chain unless they say otherwise; changes in a name come on top.
UniProt Q13586, whole entry: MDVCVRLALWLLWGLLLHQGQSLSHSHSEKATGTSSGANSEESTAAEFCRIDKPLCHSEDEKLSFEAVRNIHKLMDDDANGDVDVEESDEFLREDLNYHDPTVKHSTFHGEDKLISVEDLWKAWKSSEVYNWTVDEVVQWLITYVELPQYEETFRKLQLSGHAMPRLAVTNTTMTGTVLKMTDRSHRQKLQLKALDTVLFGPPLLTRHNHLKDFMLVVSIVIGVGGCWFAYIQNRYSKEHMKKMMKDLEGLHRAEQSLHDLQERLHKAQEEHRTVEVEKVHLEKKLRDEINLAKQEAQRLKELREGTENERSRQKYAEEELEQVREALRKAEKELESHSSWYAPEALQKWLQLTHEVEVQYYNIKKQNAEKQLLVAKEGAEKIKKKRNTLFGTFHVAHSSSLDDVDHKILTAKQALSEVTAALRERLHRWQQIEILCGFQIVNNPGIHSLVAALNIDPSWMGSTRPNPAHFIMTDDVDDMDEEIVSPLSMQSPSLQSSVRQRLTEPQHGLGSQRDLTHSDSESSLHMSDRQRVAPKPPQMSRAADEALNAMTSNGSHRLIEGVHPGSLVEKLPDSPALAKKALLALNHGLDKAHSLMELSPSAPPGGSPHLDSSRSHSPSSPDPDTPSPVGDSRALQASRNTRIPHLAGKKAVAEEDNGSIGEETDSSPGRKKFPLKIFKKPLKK
UniProt Q96CM8: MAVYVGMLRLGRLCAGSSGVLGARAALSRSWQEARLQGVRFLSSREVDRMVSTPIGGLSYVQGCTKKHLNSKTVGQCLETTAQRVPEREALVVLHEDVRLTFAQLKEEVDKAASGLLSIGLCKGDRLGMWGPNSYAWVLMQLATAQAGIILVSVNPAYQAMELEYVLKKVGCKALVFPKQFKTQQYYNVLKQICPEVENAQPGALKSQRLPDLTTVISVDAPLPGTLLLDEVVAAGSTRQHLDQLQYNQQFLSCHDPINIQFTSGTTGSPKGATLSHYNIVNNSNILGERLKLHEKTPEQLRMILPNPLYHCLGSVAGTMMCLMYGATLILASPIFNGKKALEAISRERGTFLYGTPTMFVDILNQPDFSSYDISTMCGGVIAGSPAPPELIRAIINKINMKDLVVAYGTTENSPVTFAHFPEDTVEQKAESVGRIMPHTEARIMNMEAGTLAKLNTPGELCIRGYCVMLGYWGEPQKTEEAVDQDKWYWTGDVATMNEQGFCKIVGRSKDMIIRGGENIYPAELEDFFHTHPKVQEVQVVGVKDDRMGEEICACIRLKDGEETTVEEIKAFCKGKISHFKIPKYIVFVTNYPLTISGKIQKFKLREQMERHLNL
UniProt Q15629: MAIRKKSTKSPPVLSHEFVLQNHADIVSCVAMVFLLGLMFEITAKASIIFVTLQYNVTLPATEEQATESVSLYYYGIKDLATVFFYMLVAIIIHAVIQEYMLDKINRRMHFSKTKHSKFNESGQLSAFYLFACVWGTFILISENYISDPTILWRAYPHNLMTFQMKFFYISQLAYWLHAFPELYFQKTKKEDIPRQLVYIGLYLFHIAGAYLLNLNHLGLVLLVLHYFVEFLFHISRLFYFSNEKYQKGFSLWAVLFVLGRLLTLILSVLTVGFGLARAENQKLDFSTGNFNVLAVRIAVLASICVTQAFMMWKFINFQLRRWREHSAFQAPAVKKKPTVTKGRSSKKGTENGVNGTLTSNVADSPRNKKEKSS
UniProt P51825: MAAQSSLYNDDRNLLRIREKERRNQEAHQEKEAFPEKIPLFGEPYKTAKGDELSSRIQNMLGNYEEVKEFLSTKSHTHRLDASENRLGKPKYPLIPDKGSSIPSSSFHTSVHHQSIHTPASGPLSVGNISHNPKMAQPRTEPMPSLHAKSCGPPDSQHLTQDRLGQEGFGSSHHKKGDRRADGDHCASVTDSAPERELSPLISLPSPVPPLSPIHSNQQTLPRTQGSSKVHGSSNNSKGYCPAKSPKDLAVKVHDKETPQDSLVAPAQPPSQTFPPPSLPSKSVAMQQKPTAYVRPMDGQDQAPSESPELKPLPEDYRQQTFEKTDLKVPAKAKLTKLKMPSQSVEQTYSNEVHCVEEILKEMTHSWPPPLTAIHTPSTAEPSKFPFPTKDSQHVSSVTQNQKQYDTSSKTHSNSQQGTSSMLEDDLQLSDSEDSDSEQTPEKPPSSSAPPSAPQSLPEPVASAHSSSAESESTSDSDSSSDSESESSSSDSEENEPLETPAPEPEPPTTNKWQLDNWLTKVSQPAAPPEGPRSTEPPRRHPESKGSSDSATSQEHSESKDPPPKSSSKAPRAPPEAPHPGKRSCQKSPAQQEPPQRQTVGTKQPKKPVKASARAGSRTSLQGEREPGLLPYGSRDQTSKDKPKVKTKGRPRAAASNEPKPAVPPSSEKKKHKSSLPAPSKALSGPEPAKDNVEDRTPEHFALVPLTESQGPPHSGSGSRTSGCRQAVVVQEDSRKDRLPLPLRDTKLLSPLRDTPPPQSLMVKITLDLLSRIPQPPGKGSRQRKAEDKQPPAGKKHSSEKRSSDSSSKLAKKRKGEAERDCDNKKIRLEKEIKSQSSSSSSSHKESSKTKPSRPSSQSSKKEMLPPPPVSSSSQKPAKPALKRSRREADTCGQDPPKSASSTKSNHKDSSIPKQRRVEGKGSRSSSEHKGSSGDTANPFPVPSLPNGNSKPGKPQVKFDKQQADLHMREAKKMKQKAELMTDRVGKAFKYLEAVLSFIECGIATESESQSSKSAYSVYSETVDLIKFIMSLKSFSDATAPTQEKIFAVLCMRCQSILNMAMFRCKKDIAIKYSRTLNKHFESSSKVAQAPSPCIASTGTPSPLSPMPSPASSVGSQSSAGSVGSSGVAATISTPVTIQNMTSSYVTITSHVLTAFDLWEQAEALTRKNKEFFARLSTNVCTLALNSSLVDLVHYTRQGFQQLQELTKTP
UniProt Q99571: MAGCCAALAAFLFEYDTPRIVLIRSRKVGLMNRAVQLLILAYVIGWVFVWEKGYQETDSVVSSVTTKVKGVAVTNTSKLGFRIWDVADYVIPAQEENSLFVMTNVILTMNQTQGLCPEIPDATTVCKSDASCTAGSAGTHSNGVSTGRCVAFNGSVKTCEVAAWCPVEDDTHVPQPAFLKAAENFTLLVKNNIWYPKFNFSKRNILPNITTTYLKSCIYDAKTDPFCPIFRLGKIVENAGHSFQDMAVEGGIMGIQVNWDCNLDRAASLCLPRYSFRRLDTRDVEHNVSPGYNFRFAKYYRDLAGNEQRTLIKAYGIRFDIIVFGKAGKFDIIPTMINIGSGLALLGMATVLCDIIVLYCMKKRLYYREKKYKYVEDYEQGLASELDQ
UniProt O00244: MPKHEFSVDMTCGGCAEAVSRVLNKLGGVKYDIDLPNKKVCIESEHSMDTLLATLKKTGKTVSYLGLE
UniProt O95208: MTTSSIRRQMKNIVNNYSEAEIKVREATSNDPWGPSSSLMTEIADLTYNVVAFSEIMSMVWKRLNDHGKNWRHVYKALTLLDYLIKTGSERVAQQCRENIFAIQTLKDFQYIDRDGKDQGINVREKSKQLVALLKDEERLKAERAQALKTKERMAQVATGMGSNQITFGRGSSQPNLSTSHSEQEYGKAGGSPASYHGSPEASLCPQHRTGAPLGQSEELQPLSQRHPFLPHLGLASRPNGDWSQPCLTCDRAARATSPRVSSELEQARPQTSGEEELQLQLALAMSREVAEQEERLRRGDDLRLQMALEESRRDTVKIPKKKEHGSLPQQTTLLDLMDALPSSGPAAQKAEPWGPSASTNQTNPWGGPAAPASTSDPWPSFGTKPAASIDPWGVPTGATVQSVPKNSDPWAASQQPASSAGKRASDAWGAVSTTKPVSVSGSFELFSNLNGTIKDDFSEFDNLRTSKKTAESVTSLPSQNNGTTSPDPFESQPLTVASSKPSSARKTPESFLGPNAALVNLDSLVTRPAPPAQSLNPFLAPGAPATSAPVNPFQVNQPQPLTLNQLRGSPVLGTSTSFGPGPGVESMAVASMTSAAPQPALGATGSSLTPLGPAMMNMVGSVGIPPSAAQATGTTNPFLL
UniProt O94868: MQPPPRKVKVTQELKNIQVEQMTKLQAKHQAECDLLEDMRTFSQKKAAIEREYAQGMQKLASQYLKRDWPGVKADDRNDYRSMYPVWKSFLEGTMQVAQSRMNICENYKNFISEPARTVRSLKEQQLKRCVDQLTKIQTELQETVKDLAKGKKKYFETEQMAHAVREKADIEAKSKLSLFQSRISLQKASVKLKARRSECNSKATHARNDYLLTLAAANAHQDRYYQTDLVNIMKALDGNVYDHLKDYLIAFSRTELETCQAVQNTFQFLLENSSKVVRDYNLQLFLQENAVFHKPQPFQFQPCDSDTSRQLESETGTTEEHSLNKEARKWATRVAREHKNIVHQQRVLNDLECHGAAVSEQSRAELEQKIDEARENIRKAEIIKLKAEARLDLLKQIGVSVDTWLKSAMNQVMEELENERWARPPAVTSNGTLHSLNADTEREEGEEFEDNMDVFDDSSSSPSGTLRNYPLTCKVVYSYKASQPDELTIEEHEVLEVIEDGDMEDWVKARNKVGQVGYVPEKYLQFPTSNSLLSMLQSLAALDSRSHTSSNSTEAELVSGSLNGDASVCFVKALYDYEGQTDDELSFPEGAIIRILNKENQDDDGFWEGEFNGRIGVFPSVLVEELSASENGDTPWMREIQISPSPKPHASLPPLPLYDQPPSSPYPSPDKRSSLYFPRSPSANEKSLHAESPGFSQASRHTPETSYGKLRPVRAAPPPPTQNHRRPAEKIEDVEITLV
UniProt Q96C57: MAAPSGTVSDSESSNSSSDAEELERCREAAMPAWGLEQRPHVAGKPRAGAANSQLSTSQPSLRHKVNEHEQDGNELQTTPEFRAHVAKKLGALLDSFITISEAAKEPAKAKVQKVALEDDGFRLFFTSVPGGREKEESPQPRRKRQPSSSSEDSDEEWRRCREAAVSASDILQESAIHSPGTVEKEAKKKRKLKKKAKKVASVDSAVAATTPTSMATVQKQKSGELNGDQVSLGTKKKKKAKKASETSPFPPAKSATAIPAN
UniProt P27816: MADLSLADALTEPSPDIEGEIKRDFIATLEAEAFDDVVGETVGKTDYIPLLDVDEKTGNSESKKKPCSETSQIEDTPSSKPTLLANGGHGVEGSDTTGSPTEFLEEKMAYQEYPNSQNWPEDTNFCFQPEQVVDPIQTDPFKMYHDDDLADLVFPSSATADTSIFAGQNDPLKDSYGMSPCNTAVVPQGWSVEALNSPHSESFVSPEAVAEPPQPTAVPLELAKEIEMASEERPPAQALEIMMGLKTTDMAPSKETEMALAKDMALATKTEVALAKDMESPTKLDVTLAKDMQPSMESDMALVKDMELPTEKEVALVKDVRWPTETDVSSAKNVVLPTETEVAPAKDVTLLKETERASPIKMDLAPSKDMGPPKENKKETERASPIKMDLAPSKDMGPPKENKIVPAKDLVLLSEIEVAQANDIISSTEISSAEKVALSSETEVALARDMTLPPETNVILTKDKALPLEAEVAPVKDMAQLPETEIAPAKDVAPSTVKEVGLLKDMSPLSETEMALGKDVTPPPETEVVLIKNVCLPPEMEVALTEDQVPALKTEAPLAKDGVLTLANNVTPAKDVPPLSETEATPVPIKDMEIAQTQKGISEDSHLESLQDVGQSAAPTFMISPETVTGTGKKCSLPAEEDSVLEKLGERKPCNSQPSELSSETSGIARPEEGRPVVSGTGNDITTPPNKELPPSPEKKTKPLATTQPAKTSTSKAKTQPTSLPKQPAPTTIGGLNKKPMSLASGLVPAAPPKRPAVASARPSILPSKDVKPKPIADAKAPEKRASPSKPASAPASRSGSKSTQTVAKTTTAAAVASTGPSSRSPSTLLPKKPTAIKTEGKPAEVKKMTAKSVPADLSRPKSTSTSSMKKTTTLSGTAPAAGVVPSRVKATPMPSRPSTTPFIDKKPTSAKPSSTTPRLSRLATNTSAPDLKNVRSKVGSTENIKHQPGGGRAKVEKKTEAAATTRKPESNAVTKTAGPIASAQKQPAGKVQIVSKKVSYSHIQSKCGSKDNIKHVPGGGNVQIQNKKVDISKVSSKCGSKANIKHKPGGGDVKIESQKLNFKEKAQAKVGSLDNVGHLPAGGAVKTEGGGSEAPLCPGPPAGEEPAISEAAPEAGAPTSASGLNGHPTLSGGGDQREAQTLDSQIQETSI
UniProt O75347: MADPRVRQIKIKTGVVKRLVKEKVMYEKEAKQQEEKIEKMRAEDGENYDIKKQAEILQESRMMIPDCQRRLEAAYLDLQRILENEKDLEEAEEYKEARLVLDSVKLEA
UniProt Q16637, whole entry: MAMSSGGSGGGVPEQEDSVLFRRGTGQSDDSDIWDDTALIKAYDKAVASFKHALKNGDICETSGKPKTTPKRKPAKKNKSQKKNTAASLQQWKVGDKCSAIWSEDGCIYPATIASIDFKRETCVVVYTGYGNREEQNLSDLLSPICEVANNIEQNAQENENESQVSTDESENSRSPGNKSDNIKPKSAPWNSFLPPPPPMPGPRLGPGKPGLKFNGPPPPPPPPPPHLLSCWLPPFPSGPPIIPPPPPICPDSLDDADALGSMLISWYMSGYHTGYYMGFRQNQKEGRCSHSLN

Compound: Nc1ncnc2c1ncn2[C@@H]1O[C@H](COP(=O)(O)OP(=O)(O)OP(=O)(O)O)[C@@H](O)[C@H]1O [adenosine triphosphate]
Test: NP40-soluble protein abundance relative to vehicle (solubility fold change) (ratio); higher = more soluble protein in presence of ATP
Procedure, shortened: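 Values are fold changes against the detergent-processed vehicle, based on vsn-normalised intensities. Jurkat crude lysate was treated at eight concentrations from 0.1 to 10 mM (10 min at room temperature, then 3 min at 37 °C), solubilised with 0.8% NP40 and benzonase, ultracentrifuged and analysed by TMT-labelled LC-MS/MS over three independent experiments.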

Row | Target | NP40-soluble protein abundance (concentration: 1mM) | NP40-soluble protein abundance (concentration: 2mM) | NP40-soluble protein abundance (concentration: 4mM) | NP40-soluble protein abundance (concentration: 6mM) | NP40-soluble protein abundance (concentration: 8mM) | NP40-soluble protein abundance (concentration: 10mM)
1 | F5H1N7 and related entries (UniProt Q6ZU35) | 0.936 ± 0.13 | 0.94 ± 0.047 | 1.05 ± 0.062 | 1.11 ± 0.12 | 1.05 ± 0.08 | 1.12 ± 0.14
2 | G0XQ39 and related entries (UniProt Q13586) | 0.995 ± 0.047 | 0.984 ± 0.042 | 0.966 ± 0.026 | 1 ± 0.017 | 0.9554 ± 0.0038 | 0.966 ± 0.017
3 | E9PF16 and related entries (UniProt Q96CM8) | 0.989 ± 0.026 | 0.991 ± 0.043 | 0.974 ± 0.031 | 0.96 ± 0.066 | 0.983 ± 0.029 | 0.964 ± 0.059
4 | G3XAN4 and related entries (UniProt Q15629) | 1.02 ± 0.049 | 1.06 ± 0.051 | 1.05 ± 0.043 | 1.09 ± 0.034 | 1.04 ± 0.036 | 1.01 ± 0.039
5 | F5GXF9 and related entries (UniProt P51825) | 1.03 ± 0.18 | 1.09 ± 0.18 | 1.19 ± 0.1 | 1.16 ± 0.21 | 1.03 ± 0.19 | 1.22 ± 0.078
6 | F6SFZ6 and related entries (UniProt Q99571) | 0.982 ± 0.2 | 0.953 ± 0.052 | 1.01 ± 0.17 | 0.945 ± 0.09 | 0.913 ± 0.052 | 0.917 ± 0.073
7 | E5RIM7 and related entries (UniProt O00244) | 0.905 ± 0.075 | 0.881 ± 0.056 | 0.86 ± 0.063 | 0.869 ± 0.034 | 0.875 ± 0.016 | 0.765 ± 0.12
8 | E9PBC1 and related entries (UniProt O95208) | 0.8724 ± 0.0021 | 0.931 ± 0.011 | 0.93 ± 0.054 | 0.918 ± 0.12 | 0.871 ± 0.07 | 0.856 ± 0.078
9 | E9PG19 and related entries (UniProt O94868) | 0.963 ± 0.014 | 0.956 ± 0.012 | 0.982 ± 0.034 | 1.01 ± 0.048 | 0.962 ± 0.051 | 0.953 ± 0.029
10 | E9PMC9 and related entries (UniProt Q7Z589) | 1.08 ± 0.09 | 1.06 ± 0.11 | 1.13 ± 0.044 | 1.19 ± 0.22 | 1.1 ± 0.09 | 1.21 ± 0.1
11 | F5H7W8 and related entries (UniProt Q96C57) | 1.1 ± 0.076 | 1.13 ± 0.077 | 1.24 ± 0.048 | 1.33 ± 0.077 | 1.31 ± 0.06 | 1.25 ± 0.15
12 | F6SS63 and related entries (UniProt Q8N5C8) | 0.94 ± 0.076 | 1.01 ± 0.032 | 1.04 ± 0.082 | 1.13 ± 0.082 | 1.03 ± 0.12 | 1.04 ± 0.085
13 | E7EVA0 and related entries (UniProt P27816) | 0.929 ± 0.062 | 0.933 ± 0.015 | 0.903 ± 0.024 | 0.991 ± 0.037 | 0.913 ± 0.032 | 0.916 ± 0.018
14 | E5RJD8 and related entries (UniProt O75347) | 0.887 ± 0.12 | 0.897 ± 0.088 | 0.845 ± 0.085 | 0.99 ± 0.1 | 0.814 ± 0.053 | 0.831 ± 0.06
15 | E7EQZ4 and related entries (UniProt Q16637) | 0.924 ± 0.038 | 0.959 ± 0.12 | 0.923 ± 0.14 | 0.978 ± 0.24 | 0.96 ± 0.18 | 0.994 ± 0.12

Some values from the list:
For NP40-soluble protein abundance (concentration: 6mM), F5H1N7 and related entries (UniProt Q6ZU35) reads 1.11 ± 0.12
For NP40-soluble protein abundance (concentration: 10mM), G0XQ39 and related entries (UniProt Q13586) reads 0.966 ± 0.017
